Laboratory results reported in patent US20190135928A1 (Bristol-Myers Squibb, published 2019).
No constants are given. Whether binding was seen depends on the method and setting. Some entries that bind do so weakly or less than the wild type. For some of these results: Tags and fused reporters may be left off the sequences shown. Values belong to the binder of their own block, whether it stands above or below them.

What was measured:
[1] = target: T1, TL1A expressed on transfected CHO cells (Homo sapiens (Human)) (UniProt O95150); assay: FACS titration on TL1A CHO cells, detection with PE anti-human IgG (Fc specific)
T1 sequence: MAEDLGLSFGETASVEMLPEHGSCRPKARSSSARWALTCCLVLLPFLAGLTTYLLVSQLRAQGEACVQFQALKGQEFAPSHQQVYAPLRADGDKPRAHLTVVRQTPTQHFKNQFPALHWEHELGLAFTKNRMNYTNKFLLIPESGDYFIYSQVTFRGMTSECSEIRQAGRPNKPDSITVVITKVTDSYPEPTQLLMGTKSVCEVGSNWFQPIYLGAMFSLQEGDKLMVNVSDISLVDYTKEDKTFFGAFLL

[2] = target: T2, soluble TL1A-SH6 protein (his tagged) (Homo sapiens (Human)) (UniProt O95150); assay: FACS, inhibition of the binding of TL1A SH6 (200 ng/ml) to hDR3 CHO cells, detection with PE anti-6xHis
T2 sequence: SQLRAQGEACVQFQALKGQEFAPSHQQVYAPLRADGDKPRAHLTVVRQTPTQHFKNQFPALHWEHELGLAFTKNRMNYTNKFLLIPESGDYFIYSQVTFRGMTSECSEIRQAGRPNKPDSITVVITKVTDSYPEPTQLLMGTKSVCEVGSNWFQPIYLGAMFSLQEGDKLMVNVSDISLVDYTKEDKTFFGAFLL

[3] = target: T3, recombinant full length human TL1A trimer (human) (UniProt O95150); assay: HDX-MS of TL1A trimer with 10A4 Fab
T3 sequence: T2 sequence

[4] = target: T3, recombinant full length human TL1A trimer (human); assay: HDX-MS of TL1A trimer with 10A4 mAb

binding [1]: binds
binding [2]: binds
B1: monoclonal antibody 10A4.F7 (antibody, V domains shown)
VH: QLQLQESGPGLVKPSETLSLTCTVSGGSISSRSYYWGWIRQPPGKGLEWIGSIYYNGRTYYNPSLKSRVTISVDTSKNQFSLKLSSVTAADTAVYYCAREDYGDYGAFDIWGQGTMVTVSS
VL: AIQLTQSPSSLSASVGDRVTITCRASQGISSALAWYQQKPGKAPKLLIYDASSLESGVPSRFSGSGSGTDFTLTISSLQPEDFATYYCQQFNSYPLTFGGGTKVEIK
notes: Hybridoma subclone of parental clone 10A4 (KM mouse, human IgG kappa); also called TL1A 2596.10A4.F7

binding [3]: binds
B2: 10A4 Fab (Fab, V domains shown)
VH: B1 VH
VL: B1 VL

binding [4]: binds
B3: anti-TL1A mAb (10A4) (antibody, V domains shown)
VH: B1 VH
VL: B1 VL
